# PubChem BioAssay AID1224829 | NIAID, 2016
# Test: 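Secondary check of hits that alter LPS-induced p65 translocation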 (follow-up of hits)
# Cells: mouse RAW264.7 G9 macrophage reporter cells
# Reagent: single siRNA against mouse genes, 100 nM
# Timing: 2 days of siRNA knock-down, then 40 min of LPS before fixing
# Conditions: LPS (Salmonella minnesota R595) at 10 ng/ml
# Measured: 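Imaging of GFP-p65 after 40 min of LPS; nuclear over perinuclear ring intensity ratio, scaled to plate median and non-targeting control wells, given as z-score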
# Direction: p65 translocation z-score: higher = more nuclear NF-kappaB p65 after LPS
# Hit rule: 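An siRNA is called active when the mean z-score of its two replicates is above 2 or below -2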
# Calls: active = changed p65 translocation (either direction); inactive = no clear change
# Shown is one part, drawn at random, of about 3,800 deposited reagents. 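Calls cover raised and lowered translocation; gene median uses one vendor's three siRNAs; qiagen siRNAs acted more weakly than ambion siRNAs.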 Reagents against one gene are numbered here. Not all columns of the deposit are shown. No sequences are given here.
The first 4 records as a preview:
gene symbol,siRNA no.,siRNA vendor or control pool,"p65 translocation z-score, replicate mean","p65 translocation z-score, replicate 1",Call
Smad1 (SMAD family member 1),1,ambion single siRNA,-0.41,-0.0361,inactive
Smad1 (SMAD family member 1),2,ambion single siRNA,0.38,1.15,inactive
Smad1 (SMAD family member 1),3,ambion single siRNA,-1.42,-2,inactive
Smad1 (SMAD family member 1),4,qiagen single siRNA,2.43,2.44,active

The listing, from the first entry:
gene symbol,siRNA no.,siRNA vendor or control pool,"p65 translocation z-score, replicate mean","p65 translocation z-score, replicate 1",Call
Smad1 (SMAD family member 1),1,ambion single siRNA,-0.41,-0.0361,inactive
Smad1 (SMAD family member 1),2,ambion single siRNA,0.38,1.15,inactive
Smad1 (SMAD family member 1),3,ambion single siRNA,-1.42,-2,inactive
Smad1 (SMAD family member 1),4,qiagen single siRNA,2.43,2.44,active
Smad1 (SMAD family member 1),5,qiagen single siRNA,0.0457,-1.14,inactive
Smad1 (SMAD family member 1),6,qiagen single siRNA,-8.52,-8.52,active
Chchd1 (coiled-coil-helix-coiled-coil-helix domain containing 1),1,ambion single siRNA,-0.0188,-0.0304,inactive
Chchd1 (coiled-coil-helix-coiled-coil-helix domain containing 1),2,ambion single siRNA,-0.877,-1.59,inactive
Chchd1 (coiled-coil-helix-coiled-coil-helix domain containing 1),3,ambion single siRNA,1.5,0.741,inactive
Chchd1 (coiled-coil-helix-coiled-coil-helix domain containing 1),4,qiagen single siRNA,2.92,2.56,active
Chchd1 (coiled-coil-helix-coiled-coil-helix domain containing 1),5,qiagen single siRNA,2.2,0.57,active
Chchd1 (coiled-coil-helix-coiled-coil-helix domain containing 1),6,qiagen single siRNA,-0.57,-0.105,inactive
Bmpr2 (bone morphogenetic protein receptor type 2),1,ambion single siRNA,-1.39,-2.89,inactive
Bmpr2 (bone morphogenetic protein receptor type 2),2,ambion single siRNA,-0.238,0.41,inactive
Bmpr2 (bone morphogenetic protein receptor type 2),3,ambion single siRNA,-2.23,-1.09,active
Bmpr2 (bone morphogenetic protein receptor type 2),4,qiagen single siRNA,1.8,0.39,inactive
Bmpr2 (bone morphogenetic protein receptor type 2),5,qiagen single siRNA,-0.844,-0.796,inactive
Bmpr2 (bone morphogenetic protein receptor type 2),6,qiagen single siRNA,-1.95,-1.95,inactive
Gabrb1 (gamma-aminobutyric acid type A receptor subunit beta 1),1,ambion single siRNA,1.02,3.02,inactive
Gabrb1 (gamma-aminobutyric acid type A receptor subunit beta 1),2,ambion single siRNA,0.956,1.69,inactive
Gabrb1 (gamma-aminobutyric acid type A receptor subunit beta 1),3,ambion single siRNA,-2.42,-2.42,active
Gabrb1 (gamma-aminobutyric acid type A receptor subunit beta 1),4,qiagen single siRNA,-0.453,-0.321,inactive
Gabrb1 (gamma-aminobutyric acid type A receptor subunit beta 1),5,qiagen single siRNA,3.25,4.03,active
Gabrb1 (gamma-aminobutyric acid type A receptor subunit beta 1),6,qiagen single siRNA,1.87,2.29,inactive
"Eif3f (eukaryotic translation initiation factor 3, subunit F)",1,ambion single siRNA,-2.37,-2.33,active
"Eif3f (eukaryotic translation initiation factor 3, subunit F)",2,ambion single siRNA,1.06,1.46,inactive
"Eif3f (eukaryotic translation initiation factor 3, subunit F)",3,ambion single siRNA,-4.87,-4.84,active
"Eif3f (eukaryotic translation initiation factor 3, subunit F)",4,qiagen single siRNA,-2.03,-0.457,active
"Eif3f (eukaryotic translation initiation factor 3, subunit F)",5,qiagen single siRNA,-2.15,-2.59,active
"Eif3f (eukaryotic translation initiation factor 3, subunit F)",6,qiagen single siRNA,0.161,0.68,inactive
"Fam168b (family with sequence similarity 168, member B)",1,ambion single siRNA,-3.11,-2.46,active
"Fam168b (family with sequence similarity 168, member B)",2,ambion single siRNA,-0.278,-0.278,inactive
"Fam168b (family with sequence similarity 168, member B)",3,ambion single siRNA,-4.14,-3.63,active
Rpl13a (ribosomal protein L13A),1,ambion single siRNA,-1.89,-2.4,inactive
Rpl13a (ribosomal protein L13A),2,ambion single siRNA,-1.25,-1.41,inactive
Rpl13a (ribosomal protein L13A),3,ambion single siRNA,-1.9,0.39,inactive
Rpl13a (ribosomal protein L13A),4,qiagen single siRNA,-5.31,-5.31,active
Rpl13a (ribosomal protein L13A),5,qiagen single siRNA,-2.63,-1.45,active
Rpl13a (ribosomal protein L13A),6,qiagen single siRNA,-2.98,-0.967,active
Xrcc5 (X-ray repair complementing 5),1,ambion single siRNA,2.46,3.39,active
Xrcc5 (X-ray repair complementing 5),2,ambion single siRNA,-8.25,-8.68,active
Xrcc5 (X-ray repair complementing 5),3,ambion single siRNA,1.01,1.57,inactive
Xrcc5 (X-ray repair complementing 5),4,qiagen single siRNA,0.549,0.151,inactive
Xrcc5 (X-ray repair complementing 5),5,qiagen single siRNA,-1.3,-0.168,inactive
Xrcc5 (X-ray repair complementing 5),6,qiagen single siRNA,-1.05,-0.855,inactive
Apobec2,1,ambion single siRNA,4.42,5.55,active
Apobec2,2,ambion single siRNA,0.914,1.14,inactive
Apobec2,3,ambion single siRNA,-3.02,-2.97,active
Apobec2,4,qiagen single siRNA,-0.223,-1.04,inactive
Apobec2,5,qiagen single siRNA,0.556,0.542,inactive
Apobec2,6,qiagen single siRNA,-0.11,0.0684,inactive
1700001G17Rik (RIKEN cDNA 1700001G17 gene),1,ambion single siRNA,-1.93,-2.77,inactive
1700001G17Rik (RIKEN cDNA 1700001G17 gene),2,ambion single siRNA,-3.98,-4.5,active
1700001G17Rik (RIKEN cDNA 1700001G17 gene),3,ambion single siRNA,3.8,5.79,active
1700001G17Rik (RIKEN cDNA 1700001G17 gene),4,qiagen single siRNA,2.22,2.82,active
1700001G17Rik (RIKEN cDNA 1700001G17 gene),5,qiagen single siRNA,1.07,-0.916,inactive
1700001G17Rik (RIKEN cDNA 1700001G17 gene),6,qiagen single siRNA,0.145,-0.0279,inactive
"Ttf2 (transcription termination factor, RNA polymerase II)",1,ambion single siRNA,2.86,4.17,active
"Ttf2 (transcription termination factor, RNA polymerase II)",2,ambion single siRNA,-4.51,-5.2,active
"Ttf2 (transcription termination factor, RNA polymerase II)",3,ambion single siRNA,-2.15,0.689,active
"Ttf2 (transcription termination factor, RNA polymerase II)",4,qiagen single siRNA,0.361,0.00777,inactive
"Ttf2 (transcription termination factor, RNA polymerase II)",5,qiagen single siRNA,1.24,0.175,inactive
"Ttf2 (transcription termination factor, RNA polymerase II)",6,qiagen single siRNA,0.173,-0.641,inactive
Hsd17b6 (hydroxysteroid (17-beta) dehydrogenase 6),1,ambion single siRNA,0.942,1.67,inactive
Hsd17b6 (hydroxysteroid (17-beta) dehydrogenase 6),2,ambion single siRNA,-1.35,-1.63,inactive
Hsd17b6 (hydroxysteroid (17-beta) dehydrogenase 6),3,ambion single siRNA,-2.81,-4.21,active
Hsd17b6 (hydroxysteroid (17-beta) dehydrogenase 6),4,qiagen single siRNA,0.921,0.891,inactive
Hsd17b6 (hydroxysteroid (17-beta) dehydrogenase 6),5,qiagen single siRNA,-0.657,-1.37,inactive
Hsd17b6 (hydroxysteroid (17-beta) dehydrogenase 6),6,qiagen single siRNA,-1.24,-1.51,inactive
